# Binding screen against folded nucleic acids

Data from the ROBIN nucleic acid binder screens, doi:10.1002/anie.202211358.

Targets (5′ to 3′):
SAM-II: SAM-II riboswitch RNA pseudoknot, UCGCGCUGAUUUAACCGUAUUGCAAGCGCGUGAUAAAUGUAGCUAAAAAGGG. About 21,000 compounds screened, about 200 hits.
TPP: TPP riboswitch RNA three-way junction, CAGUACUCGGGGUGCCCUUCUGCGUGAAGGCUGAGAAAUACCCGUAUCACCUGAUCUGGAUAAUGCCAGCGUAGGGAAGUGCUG. About 24,000 compounds screened, about 160 hits.
PreQ1: PreQ1 riboswitch RNA pseudoknot, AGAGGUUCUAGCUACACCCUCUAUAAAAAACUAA. From B. subtilis. About 24,000 compounds screened, about 170 hits.

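Compounds were printed on reactive glass slides in duplicate spots, a dye-labelled oligonucleotide was laid over them, and the fluorescence left after washing was read. For the PreQ1, TPP and SAM-II riboswitches the laboratory earlier reported (doi:10.1038/s41467-019-09493-3) 1 µM RNA, 2 h, and a rule that included a mean Z-score above 3 (spot signal-to-noise against the whole library), a score well above that on a control array, and duplicate spots agreeing (coefficient of variation under 100). The data file gives only the calls; its cut-offs may differ, and compounds hitting several targets are kept. The calls come from the array alone, and fixing a compound to the slide can hide its binding.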
“Y” means called a hit, “N” means screened and not called a hit.
The compounds are a random part of those screened.
A dash means that no call is listed here.

compound	SAM-II	TPP	PreQ1
NC(=O)C1=C(Nc2cccc(Br)c2)c2ccccc2S1(=O)=O	-	N	N
CC(=O)c1cccc(NC2OC(=O)c3ccccc32)c1 (centres undefined)	N	N	N
CC(=O)c1cccc(Nc2cc(C)nc3nc(-c4ccccc4)nn23)c1	-	N	N
COc1ccccc1N1CCN(c2ncccc2CNC(=O)[C@H]2CCCN2)CC1	N	N	N
CCCCNCc1ccc(-c2ccc(OC)c(Cl)c2)o1	-	N	N
Cc1cc(C(=O)N2CC[C@@H]3[C@@H](CCC(=O)N3CCN)C2)c(C)o1	N	N	N
COc1cccc(CNC2=NS(=O)(=O)C(c3ccc(C(C)C)cc3)=C2C)c1	-	N	N
CC(C)(C)n1nc(C2CC2)cc1NC(=O)Nc1ccc(Cl)cc1	N	N	N
CCC1(C)Cc2ccccc2-c2nc(NCCO)n(-c3ccccc3)c(=O)c21 (centres undefined)	N	N	N
Cc1c(Cl)cccc1-c1ccc(CNCCc2ccc(S(N)(=O)=O)cc2)o1	-	N	N
Cc1ccc(CCNC(=O)CN(C)S(=O)(=O)c2cc(Br)cnc2N)cc1	-	N	N
c1cncc(CNCc2ccc3c(c2)OCO3)c1	N	N	N
Cc1ccc(-c2cc(-c3ccc(C)cc3)nc(N)n2)cc1	-	N	N
CN1C[C@H](Nc2nccc(-c3cc(C(=O)O)ccn3)n2)C[C@H]1CO	N	N	N
Fc1ccc(-c2n[nH]cc2Cn2ccnc2-c2cc3n(n2)CCNC3)cc1	N	N	N
Cc1cccnc1NCCN1CC2(CCNCC2)CCC1=O	N	N	N
CC1CCN(c2nc3nonc3nc2Nc2cccc(Cl)c2)CC1	N	N	N
CC(C)C(C)C=CC(C)C1CCC2C3=CC=C4CC(O)CCC4(C)C3CCC21C (centres undefined)	N	N	N
CC(C)c1cc(C(=O)N2CCNC(C(=O)O)C2)cs1 (centres undefined)	N	N	N
O=[N+]([O-])c1ccc(CNC2CCCC2)cc1	N	N	N
CN(Cc1ccc2c(c1)OCO2)Cc1cc2n(n1)CCN(C[C@H](O)CO)C2	N	N	N
COc1ccccc1C(CCNCc1ccccc1)c1ccco1 (centres undefined)	N	N	N
COc1cc(C2C(C#N)=C(N)Oc3ccc4ccccc4c32)cc(OC)c1OC (centres undefined)	N	N	N
Cc1nc(C2CCNCC2)cc(N2CCc3[nH]c4ccccc4c3C2)n1	N	N	N
CCOc1ccccc1C1C(C#N)=C(N)OC2=C1S(=O)(=O)N(C)c1ccccc12 (centres undefined)	-	N	N
CC1=C(c2ccc(C)c(C)c2)S(=O)(=O)N=C1Nc1cc(F)ccc1F	-	N	N
Nc1nc2c(c(N3CCC(O)(c4cccnc4)CC3)n1)CCNCC2	N	N	N
COc1ccc(CCNc2cc(C)nc3cc(-c4ccccc4OC)nn23)cc1OC	-	N	N
COc1ccc(CCNC(=O)CN2CC[C@H]3NCCC[C@]3(CO)C2)cc1	N	N	N
Cc1noc(CC2CCN(c3ncnc4c3CCNCC4)CC2)n1	N	N	N
Cc1cccc(NC(CNS(=O)(=O)c2ccc(Cl)cc2)c2ccccc2)c1 (centres undefined)	-	N	N
O=[N+]([O-])c1ccc(OCCOCCO)cc1	N	N	N
CC1CC(C)CN(c2nc(Nc3cccc(Cl)c3)c3cnn(C)c3n2)C1 (centres undefined)	-	N	N
COc1ccccc1CNc1ncc(-c2ccccc2)n1C	N	N	N
OC1(Cc2ccccc2)CCNCC1	N	N	N
COc1ccc2cc3c(N)nn(C(=O)c4ccccc4Cl)c3nc2c1	N	N	N
CCn1cnc2cc(NCc3ccc(C)cc3)ccc21	N	N	N
Cc1ccc2c(c1)C(=O)[C@]1(O)CCN(c3ccccc3)C1=N2	N	N	N
COC(=O)c1cccc(OCCn2ccnc2-c2cc3n(n2)CCNC3)c1	N	N	N
Cc1ccc(OCC(O)Cn2c(C3CC3)nc3ccccc32)cc1 (centres undefined)	-	N	N
O=C(OCCNC1=NS(=O)(=O)c2ccccc21)c1cccnc1	N	N	N
CC1(C)Cc2nc(N3CCC(O)CC3)ncc2C(Nc2ccc(Cl)nn2)C1 (centres undefined)	N	N	N
CNC(=O)c1cc(-c2ccccc2CO)ccc1Cl	N	N	N
CC(C)=C(c1ccc(Cl)cc1)c1c(N)ncnc1N	N	N	N
CC1(C)CC(=O)C(CC(=O)c2ccccc2)=C(NNC(=N)N)C1	N	N	N
CCOc1c(Br)cc(CNCCc2c[nH]c3ccccc23)cc1OC	N	N	N
O=C(NC1CC1)C1CNCCN1C(=O)c1cnc(Nc2ccccc2)nc1 (centres undefined)	N	N	N
COc1ccc(-c2nn3c(NC4CCCCC4)cc(C)nc3c2C)cc1	-	N	N
Cc1ccc(CNCc2ccccc2Cl)s1.Cl	N	N	N
O=C(CC1Nc2ccccc2NC1=O)Nc1ccccc1SC(F)(F)C(F)(F)C(F)(F)F (centres undefined)	N	N	N

Once more, the final 3:

| compound | SAM-II | TPP | PreQ1 |
|---|---|---|---|
| `COc1ccc(-c2nn3c(NC4CCCCC4)cc(C)nc3c2C)cc1` | - | N | N |
| `Cc1ccc(CNCc2ccccc2Cl)s1.Cl` | N | N | N |
| `O=C(CC1Nc2ccccc2NC1=O)Nc1ccccc1SC(F)(F)C(F)(F)C(F)(F)F` (centres undefined) | N | N | N |